Assay results from the supplement of paper PMC3334620.
In all, about 33,000 sequences were measured (“E-score (-0.5 to 0.5)”: median about -0.0034, highest 2% from about 0.25 on). This is one part of the list.

What follows are sequences tested against T1, Yap3 (UniProt P38749) (assay: PBM E-score (8-mer binding enrichment) (E-score (-0.5 to 0.5)); higher = stronger / more preferred TF binding). Conditions: protein concentration: 100 nM; construct: GST-full length.
T1 sequence: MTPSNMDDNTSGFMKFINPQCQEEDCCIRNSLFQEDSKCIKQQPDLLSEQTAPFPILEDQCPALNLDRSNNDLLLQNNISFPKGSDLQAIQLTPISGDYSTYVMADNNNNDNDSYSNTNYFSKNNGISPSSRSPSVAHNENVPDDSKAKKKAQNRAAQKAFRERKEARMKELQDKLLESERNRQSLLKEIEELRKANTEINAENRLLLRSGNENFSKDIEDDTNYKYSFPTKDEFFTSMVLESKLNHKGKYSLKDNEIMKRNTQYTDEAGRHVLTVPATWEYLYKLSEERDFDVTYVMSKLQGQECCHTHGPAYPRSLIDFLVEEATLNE
Outline: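 Each ungapped eight-base word and its reverse complement, pooled, received an E-score from the Universal PBM Analysis Suite. Underlying scans, normalised with masliner, recorded fluorescent anti-GST bound to GST-tagged yeast transcription factors. These were applied at about 100-200 nM to universal all-10-mer Agilent arrays double-stranded by primer extension.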

Row | Sequence | PBM E-score
1 | AAGTAGCC | -0.116
2 | GGTAATCA | 0.189
3 | TAAAAGGA | 0.124
4 | CTTGCGTC | -0.128
5 | CCGACTCC | -0.157
6 | GAGCCGCA | -0.0891
7 | CTACCCCC | -0.321
8 | CCGACCGA | -0.161
9 | TCGCGGAA | -0.0286
10 | GAATCTGC | -0.0595
11 | GGACTATA | 0.0794
12 | CGAATTGC | 0.131
13 | AGGTACCG | -0.0762
14 | GGACTGCC | -0.28
15 | ATTAGCAC | 0.153
16 | CCGGGAAC | -0.0983
17 | ATTCTTAA | -0.147
18 | CAGCACTC | -0.128
19 | ATCGGGTC | 0.131
20 | CGTCTTTA | 0.184
21 | GCGACACC | -0.161
22 | GATTTTGC | 0.0038

Row | Sequence | PBM E-score
23 | CCACCGGC | -0.272
24 | ACCCCTTC | -0.182
25 | CATCGCCG | -0.0138
26 | CCCTTGCC | -0.0957
27 | GAGTTATA | 0.147
28 | AGGATAGG | 0.00943
29 | GGCGAGGA | -0.17
30 | TCGTCAGA | -0.102
31 | GCCATACC | -0.214
32 | CGGACTAG | -0.101
33 | CCCTTTTA | -0.231
34 | ACTGATCT | 0.105
35 | GAGGACAC | -0.00918
36 | ACCTCCAC | -0.0474
37 | ATGTGGTA | 0.148
38 | CGTTAGAG | -0.113
39 | GCGAGAGA | -0.0815
40 | GCTATCCA | -0.0873
41 | GCGGCAAC | -0.0289
42 | ACATGCGA | -0.0823
43 | GGAGGCAA | -0.245
44 | CAGCGAAC | -0.0135

Row | Sequence | PBM E-score
45 | AGGTCGAG | -0.13
46 | GTGTCCCA | -0.194
47 | GGCACATA | 0.0174
48 | AGAAGGGC | -0.17
49 | ATCAGGGG | -0.0789
50 | GCGCAATA | 0.0165
51 | CGTTGCCA | 0.0873
52 | ATCGATTC | 0.111
53 | GGGCTGAA | 0.0423
54 | ATCGGCTG | -0.136
55 | AACGCAGA | -0.0761
56 | CGTGGACC | -0.305
57 | AGTTTTTC | 0.118
58 | AGAGATAA | 0.169
59 | CACACACG | 0.0835
60 | GTAAGAAC | 0.133
61 | CTCGTAAC | 0.177
62 | AATTTCAA | 0.171
63 | ACAAACCT | 0.193
64 | CCATCAGG | -0.31
65 | ATATAAGG | 0.252
66 | TATCACGA | 0.0641

Part of the list above, in markdown:

| Row | Sequence | PBM E-score |
| --- | --- | --- |
| 47 | GGCACATA | 0.0174 |
| 48 | AGAAGGGC | -0.17 |
| 49 | ATCAGGGG | -0.0789 |
| 53 | GGGCTGAA | 0.0423 |
| 59 | CACACACG | 0.0835 |
| 63 | ACAAACCT | 0.193 |
| 64 | CCATCAGG | -0.31 |

(listing goes on)

Row | Sequence | PBM E-score
67 | ACGTCGCA | -0.015
68 | ACTGGGCA | -0.157
69 | CGGGCACG | -0.112
70 | AACCTTCT | -0.133
71 | GTAATATA | 0.354
72 | CACCACAA | 0.0629
73 | CCGCTAGG | -0.128
74 | GTATGCTA | -0.0442
75 | CCCGGATA | 0.00459
76 | CTCTCATC | -0.152
77 | CGTCCACA | 0.0252
78 | CCGCCGCA | -0.0911
79 | CGGATCAA | 0.0957
80 | GTCCGACA | 0.0331
81 | GGGCGTTA | -0.0517
82 | AGCGGAGC | -0.239
83 | TAGTCTGA | -0.007
84 | CGGACACC | -0.242
85 | CAGGAGGG | -0.286
86 | GTCCCATA | -0.0701
